Results as given in publication PMC5296607.

Target: T1, RFP-PkaR (red fluorescent protein-labeled PkaR regulatory subunit of protein kinase A) (Aspergillus fumigatus) (UniProt Q96UX3)
T1 sequence: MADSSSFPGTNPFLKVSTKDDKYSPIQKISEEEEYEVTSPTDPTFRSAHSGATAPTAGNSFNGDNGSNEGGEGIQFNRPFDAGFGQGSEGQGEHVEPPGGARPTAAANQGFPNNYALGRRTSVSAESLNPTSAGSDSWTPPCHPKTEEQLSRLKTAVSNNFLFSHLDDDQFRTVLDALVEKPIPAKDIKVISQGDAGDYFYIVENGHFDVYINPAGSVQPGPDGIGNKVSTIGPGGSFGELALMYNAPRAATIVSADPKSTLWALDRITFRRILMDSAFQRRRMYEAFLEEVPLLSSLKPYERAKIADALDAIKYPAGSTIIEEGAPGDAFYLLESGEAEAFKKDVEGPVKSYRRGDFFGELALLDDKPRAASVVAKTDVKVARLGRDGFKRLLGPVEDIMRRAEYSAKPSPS
Test: co-IP; RFP-Trap (Chromotek) affinity purification of RFP-PkaR from normalized crude extracts of A. fumigatus strains co-expressing GFP-labeled PkaC1 isoforms; Western blot with anti-GFP antibodies; GFP-Trap of the same extracts as control of PkaC1 level

With “PkaC1-T333A-GFP (GFP-labeled PkaC1 with the T333A substitution) (Aspergillus fumigatus) (enzyme)” the binding was “binds”.

These are yes or no findings as the source states them, for the method shown. In cells and extracts the contact can be indirect. Binding can be weak; no strength is given.
